From paper PMC10445734

B1: Rho-5 (protein, UniProt Q76NQ1 1-1429)
chain: MSSNGSDLGHNNRRNEKGNPDSVHSSMRGSMSSTRRKSINFQNQLQLALESNECDVMYCSLSSGRFRAPNGENFPPHGGKLKLSPLEKYDDANRGVPPPSPAPNSDCFATCVANQLPSQSCSVGSAKPETSVMQKHGMAGNGMVGSGMSGNGMAANGTNYHQRGVSPNSRYRLERYRESQSTPQSKLMDNMGGMPSAVPSVSATRLLLPSNVPLPLAQCENYNAYLGSTVHTPVKRYVPTPPPAMELYSDLSISSSPAANLPTPAAAVASSASTSASAMQSQYANMPYNYRSKCCHSEASHGSLSRTSQTYASCSPACTSPSPAPSTSMSMVFSAASSCSPIMTATSSARSGNHRGDDSDSVIVVPPGGGAMAQIEAENPSGTCLHCNTVRRTTGVHQTTQTTGPISPVPISLPVPMAMPVMSGLNEQMPSQSLESSMVSVQAKRLEGGGNMAVPPGSNQHQLYRSQMASNPRLQHIHHQTQQHQSLQVLPQPQNHHLSCKKRIGMYMRRTTSQFFGVEPSTEAADCALWQGRHRRLAIRCFGMFDTELEYHMQQAIGGGNEDAGQSNGTNGNYAPDRPDILPVQDAIGMDMTMSGDSRRQKCYTNRDFLAGEFVERKASVGYMFVAMVSYLVHMFNKRRPIQMHRVRCPWQWSRSFAPIHVQSHSNQQTDADGCLTDGLEAIIDDEVFFDSPCEITTSAVNDESSDIGRQAAKPRPCADQSGVGVSVYMAERQQNGWRTSALNSGGNATSDINLTGDQSSHQPGAAHIPLCSSVSSQMQPAMRSSHSTTSTCNRGNRITAQLLDGVLENSRRPPLRCIKYFSVNDLDDRTDHRPFFTYWINTVQVVVLILSIICYGIAPIGIGSEQKTGQVLVTSLSLQTVQHVEQRNLWIGPRNIDLVHMGAKFAACMRRDIKITEVVTKTRRHERETACCIRNDDSGCVQSSQAECSIRGLYPTKSISTWKKWSPSESGPGGRISGSVCGLDPKFCDAPASIAPYEWPDDITKWPICRKTNSFTQRYRYKDHTSEHMVCEVIGHPCCTGLYGECRITTREYCDFIKGYFHEEASLCSQISCLNNVCGMFPFISVETPDQLYRLLTSLCMHAGILHLAITLIFQHLFLADLERLIGTVRTAIVYIMSGFAGNLTSAILVPHRPEVGPSASLSGVVASLIALLVWMHWKYLHKPHIALFKLLLLCSVLVGIGTLPYQLNFLGLLAGVICGCLLTMSLVPFTTFSKYGRKKKINLIWTCVLFHVVVYTAMIVTFYIHPSEFHSISFVDMFSNSNGYDNFTNADHHGVDVVSSNTRYSQTQNSQYYYHHHSDDIIRKSVTFTEKALVSHILYPTAPRKTSAQQWQEVEYSRSFNHLSNYSDRIKKSIGNISKLKQVFTSPIRFSNKNNHSNLMTELTSVHSENKQKYLGYINNNTEFNVL
B2: Prosalpha2 (protein, UniProt P40301 1-234)
chain: MATERYSFSLTTFSPSGKLVQLEYALAAVSGGAPSVGIIASNGVVIATENKHKSPLYEQHSVHRVEMIYNHIGMVYSGMGPDYRLLVKQARKIAQTYYLTYKEPIPVSQLVQRVATLMQEYTQSGGVRPFGVSLLICGWDNDRPYLYQSDPSGAYFAWKATAMGKNAVNGKTFLEKRYSEDLELDDAVHTAILTLKEGFEGKMTADNIEIGICDQNGFQRLDPASIKDYLASIP

Molecular target: N-terminally HA-tagged Fra (Frazzled), pan-neurally overexpressed (Drosophila)
Assay: affinity purification with mass spectrometry; lysates of Drosophila embryos pan-neurally (elav-Gal4) overexpressing N-terminally HA-tagged Fra; anti-HA immunoprecipitation overnight at 4°C, protein A and G agarose beads, TBSV with 1% NP40; eluted with glycine pH 2.0; label-free LC-MS/MS; control embryos with elav-Gal4 alone

Binder | binding
B1 | binds
B2 | binds

These are yes or no findings as the source states them, for the method shown. Binding seen in cells or lysates may run through a third protein. Here binding means that the protein was enriched with, or labelled near, the bait; the list need not be complete.
